Experimental data: PubChem BioAssay AID1224828 (NIAID, 2016)
Here is one part, drawn at random, of about 17,000 reagents. 762 of all reagents (4.5%) were called active. 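Active calls include both raised and lowered p65 entry, mostly lowered; wells with fewer than 50 cells lack a z-score.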 Raw values vary from plate to plate and are shown uncorrected. Entries without a mark were called inactive.

Aim: 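Find genes required for NF-kappaB p65 moving into the nucleus after LPS in mouse macrophages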 (primary screen)
System: mouse RAW264.7 G9 macrophage reporter cells (GFP-p65, Tnf promoter-mCherry)
Reagent: siRNA pool against mouse genes, 100 nM
Time to read-out: 2 days siRNA transfection, then 40 min LPS before fixation
Treatment: LPS (Salmonella minnesota R595) at 10 ng/ml
Measurement: 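Imaged p65 nuclear translocation ratio, normalised to the plate median, converted to robust z-scores and averaged across two replicates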
Reading the numbers: p65 translocation robust z-score: higher = more nuclear NF-kappaB p65 after LPS than the plate median; nuclear/cytoplasmic p65 ratio: higher = more nuclear NF-kappaB p65
Call rule: 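Active if robust z is above 3.3 (negative regulators) or below -1.56, the Tlr4 control median (positive regulators); activity score 50 or more; control wells not called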
Calls: active = hit (p65 shift raised or lowered); inactive = no clear change

Target gene	p65 translocation robust z-score	nuclear/cytoplasmic p65 ratio, rep 1	nuclear/cytoplasmic p65 ratio, rep 2	low cell count flag
Chst3	0.56	1.73	1.82	enough cells to score
Pdcl2	-1.89 (active)	1.18	1.13	enough cells to score
Gpx1	0.97	1.54	1.52	enough cells to score
Orm2		1.59	1.26	fewer than 50 cells per well; well left out of scoring
Cks1b	-2.7 (active)	1.13	1.15	enough cells to score
Cfp	0.58	1.58	1.44	enough cells to score
4932407I05		1.24	1.33	fewer than 50 cells per well; well left out of scoring
Dand5	1.35	1.63	1.55	enough cells to score

2 entries from above, sorted by “p65 translocation robust z-score”, low to high.
Target gene	p65 translocation robust z-score	nuclear/cytoplasmic p65 ratio, rep 1	nuclear/cytoplasmic p65 ratio, rep 2	low cell count flag
Cks1b	-2.7 (active)	1.13	1.15	enough cells to score
Cfp	0.58	1.58	1.44	enough cells to score

Further records follow.
Target gene	p65 translocation robust z-score	nuclear/cytoplasmic p65 ratio, rep 1	nuclear/cytoplasmic p65 ratio, rep 2	low cell count flag
R3hdm4	0.03	1.51	1.53	enough cells to score
Psmb7	0.31	1.54	1.14	enough cells to score
Tmem67	2.04	1.58	1.78	enough cells to score
Ppp1r1b	-0.02	1.65	1.4	enough cells to score
Midn	-0.4	1.65	1.49	enough cells to score
Mlx	0.34	1.53	1.6	enough cells to score
Prl2c3	1.32	1.53	1.38	enough cells to score
Ppp2r1b	-0.78	1.49	1.5	enough cells to score
Nr1h3		1.2	1.12	fewer than 50 cells per well; well left out of scoring
H2-T23	0.02	1.45	1.37	enough cells to score
Uts2		2.1	0.913	fewer than 50 cells per well; well left out of scoring
Vps37d	0.25	1.52	1.21	enough cells to score
Cd7	-0.45	1.49	1.33	enough cells to score
Trip12	-0.47	1.31	1.33	enough cells to score
Pigs	-0.31	1.4	1.11	enough cells to score
Phf23	2.04	1.6	1.81	enough cells to score
